IC50 data for 1 compound are collected here from publication PMC11729928 (PLOS ONE, 2025).

In the assay the test system is CHO-KI CHOP::luciferase cells. The assay is described as follows: CHOP::luciferase assay. The class given is cell-based. The following applies: tunicamycin 3 μg/mL, 6h, read-out: IC50, inhibition of tunicamycin-induced luciferase expression. The method, then:
CHO-KI CHOP::luciferase cells (a gift from David Ron, Cambridge University, UK) were cultured in Dulbecco’s modified Eagle medium (DMEM)/F12(Ham) (Gibco) supplemented with 10% fetal bovine serum (Sigma Aldrich), 2 mM L-glutamine (Merck Millipore) and 1% penicillin/streptomycin (Merck Millipore) with 200 μg/mL G418 (Life Technologies). Cells were maintained at 37°C with 5% CO2. Cells were regularly checked for mycoplasma contamination.
Cells were exposed to 3 μg/mL of tunicamycin or vehicle (dimethylsulphoxide, DMSO, Sigma), and treated for 6h with pharmacological compounds at concentrations ranging from 0.1 to 500 μM.
For all treatments the whole culture medium was replaced with fresh medium containing the compounds at the desired final concentrations, with or without addition of tunicamycin; control cells were treated by replacing the culture medium with fresh medium containing the vehicle. At the end of the treatment, cells were processed as follows. […] After 5-min incubation, luciferase activity was measured using the GloMax 96 microplate luminometer (Promega).
TUDCA is a chemical chaperone reported to promote protein folding and alleviate ER stress. […] Thus, we measured the ability of TUDCA to attenuate the luciferase response to tunicamycin in CHOP::luciferase cells. […]

Take `O=c1n(CCCN2CCN(c3cccc(Cl)c3)CC2)nc2ccccn12` [Trazodone]: the IC50 (as a rule, the concentration that gives 50% inhibition) is 80 µM.
